From article PMC10899660, “Global fungal-host interactome mapping identifies host targets of candidalysin” (Nature Communications, 2024)
These are yes or no findings as the source states them, for the method shown. Some binding calls cover weakened binding; strength is not graded here.

Sequences of proteins named here, by UniProt entry; tags and fusion partners are left off. Residues count along the entry.
Ece1-II peptide, Gal4 activation domain fusion (Q07730, residues 32-61): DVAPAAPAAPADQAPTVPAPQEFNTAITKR
Ece1-IV peptide, Gal4 activation domain fusion (Q07730, residues 94-126): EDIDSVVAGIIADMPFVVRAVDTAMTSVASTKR
Ece1-V peptide, Gal4 activation domain fusion (Q07730, residues 127-160): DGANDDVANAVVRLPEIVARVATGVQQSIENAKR
Ece1-VI peptide, Gal4 activation domain fusion (Q07730, residues 161-194): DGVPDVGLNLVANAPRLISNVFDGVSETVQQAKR
Ece1-VII peptide, Gal4 activation domain fusion (Q07730, residues 195-228): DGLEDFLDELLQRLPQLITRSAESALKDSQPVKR
Ece1-VIII peptide, Gal4 activation domain fusion (Q07730, residues 229-271): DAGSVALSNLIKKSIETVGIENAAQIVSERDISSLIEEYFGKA
UniProt P51946: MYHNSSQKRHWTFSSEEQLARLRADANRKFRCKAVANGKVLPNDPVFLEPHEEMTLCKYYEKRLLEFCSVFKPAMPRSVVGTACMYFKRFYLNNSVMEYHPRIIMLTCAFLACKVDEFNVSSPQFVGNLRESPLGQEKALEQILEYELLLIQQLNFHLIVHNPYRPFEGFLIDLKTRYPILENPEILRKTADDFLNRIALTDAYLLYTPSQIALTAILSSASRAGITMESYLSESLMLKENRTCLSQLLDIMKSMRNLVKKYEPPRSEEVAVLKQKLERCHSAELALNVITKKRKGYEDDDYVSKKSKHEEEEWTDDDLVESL
UniProt Q96AP0: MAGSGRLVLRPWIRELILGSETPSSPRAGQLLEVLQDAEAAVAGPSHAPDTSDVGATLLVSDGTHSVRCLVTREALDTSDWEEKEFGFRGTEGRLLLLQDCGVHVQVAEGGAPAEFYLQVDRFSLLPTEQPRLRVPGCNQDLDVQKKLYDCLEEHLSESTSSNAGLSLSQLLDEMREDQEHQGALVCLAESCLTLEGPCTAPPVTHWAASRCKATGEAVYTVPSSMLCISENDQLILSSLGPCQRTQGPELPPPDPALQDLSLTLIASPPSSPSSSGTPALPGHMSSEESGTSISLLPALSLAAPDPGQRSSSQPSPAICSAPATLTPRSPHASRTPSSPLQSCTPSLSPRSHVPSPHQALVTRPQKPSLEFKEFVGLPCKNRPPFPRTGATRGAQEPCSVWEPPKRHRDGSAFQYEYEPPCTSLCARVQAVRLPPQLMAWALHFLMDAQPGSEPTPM
UniProt O75019: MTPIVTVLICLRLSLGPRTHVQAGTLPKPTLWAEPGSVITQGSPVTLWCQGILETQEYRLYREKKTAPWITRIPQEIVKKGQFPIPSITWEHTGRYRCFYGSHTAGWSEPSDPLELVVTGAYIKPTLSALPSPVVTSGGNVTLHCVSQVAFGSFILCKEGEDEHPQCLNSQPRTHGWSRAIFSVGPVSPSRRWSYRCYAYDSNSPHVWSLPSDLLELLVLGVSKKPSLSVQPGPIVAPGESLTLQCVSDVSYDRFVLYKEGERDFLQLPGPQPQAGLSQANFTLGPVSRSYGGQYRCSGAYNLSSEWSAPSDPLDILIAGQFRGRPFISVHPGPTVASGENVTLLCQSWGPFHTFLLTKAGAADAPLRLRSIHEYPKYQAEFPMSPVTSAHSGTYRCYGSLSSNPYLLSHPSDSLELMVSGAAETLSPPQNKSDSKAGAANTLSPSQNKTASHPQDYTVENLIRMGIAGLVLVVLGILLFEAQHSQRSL
UniProt Q8N149: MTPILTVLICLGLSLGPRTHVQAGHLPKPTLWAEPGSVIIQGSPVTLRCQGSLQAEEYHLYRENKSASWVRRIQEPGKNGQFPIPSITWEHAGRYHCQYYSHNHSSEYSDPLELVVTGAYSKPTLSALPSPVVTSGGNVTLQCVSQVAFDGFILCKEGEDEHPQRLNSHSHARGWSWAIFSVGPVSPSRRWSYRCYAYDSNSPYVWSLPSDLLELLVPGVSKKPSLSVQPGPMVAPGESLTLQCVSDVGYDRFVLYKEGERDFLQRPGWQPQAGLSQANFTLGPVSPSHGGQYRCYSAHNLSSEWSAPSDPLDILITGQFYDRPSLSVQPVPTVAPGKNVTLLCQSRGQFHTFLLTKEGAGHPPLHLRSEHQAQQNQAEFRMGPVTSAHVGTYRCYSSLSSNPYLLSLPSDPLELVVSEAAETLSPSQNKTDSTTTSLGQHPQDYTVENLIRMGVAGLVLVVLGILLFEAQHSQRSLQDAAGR
UniProt Q8N6C8: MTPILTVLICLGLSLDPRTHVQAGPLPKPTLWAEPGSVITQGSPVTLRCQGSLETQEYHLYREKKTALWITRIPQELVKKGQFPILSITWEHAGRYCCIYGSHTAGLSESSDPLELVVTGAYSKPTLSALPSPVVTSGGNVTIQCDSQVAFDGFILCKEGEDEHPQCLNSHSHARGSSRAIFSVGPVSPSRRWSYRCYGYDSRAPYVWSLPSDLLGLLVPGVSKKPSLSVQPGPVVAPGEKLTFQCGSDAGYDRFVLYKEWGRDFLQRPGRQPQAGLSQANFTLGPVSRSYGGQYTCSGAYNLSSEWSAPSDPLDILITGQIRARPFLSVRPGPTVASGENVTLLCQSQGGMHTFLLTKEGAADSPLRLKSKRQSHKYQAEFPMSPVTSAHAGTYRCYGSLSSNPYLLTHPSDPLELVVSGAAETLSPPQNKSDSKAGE
UniProt Q8NHL6: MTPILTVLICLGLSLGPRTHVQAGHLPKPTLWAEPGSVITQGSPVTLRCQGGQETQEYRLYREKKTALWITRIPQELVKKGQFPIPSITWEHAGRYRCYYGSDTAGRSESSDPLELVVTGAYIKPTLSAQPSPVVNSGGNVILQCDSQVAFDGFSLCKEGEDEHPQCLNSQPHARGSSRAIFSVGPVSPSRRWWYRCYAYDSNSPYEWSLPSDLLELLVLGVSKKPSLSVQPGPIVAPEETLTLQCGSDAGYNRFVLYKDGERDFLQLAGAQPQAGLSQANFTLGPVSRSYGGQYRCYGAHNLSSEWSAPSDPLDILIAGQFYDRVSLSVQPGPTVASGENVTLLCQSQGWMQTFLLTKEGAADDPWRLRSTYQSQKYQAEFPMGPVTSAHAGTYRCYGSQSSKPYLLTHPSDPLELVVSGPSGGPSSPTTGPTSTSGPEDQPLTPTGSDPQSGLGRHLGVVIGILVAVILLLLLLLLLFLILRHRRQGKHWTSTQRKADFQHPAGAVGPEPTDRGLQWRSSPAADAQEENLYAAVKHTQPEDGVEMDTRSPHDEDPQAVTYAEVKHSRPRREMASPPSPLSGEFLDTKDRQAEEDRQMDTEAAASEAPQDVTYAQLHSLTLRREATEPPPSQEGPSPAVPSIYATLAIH
UniProt Q8N423: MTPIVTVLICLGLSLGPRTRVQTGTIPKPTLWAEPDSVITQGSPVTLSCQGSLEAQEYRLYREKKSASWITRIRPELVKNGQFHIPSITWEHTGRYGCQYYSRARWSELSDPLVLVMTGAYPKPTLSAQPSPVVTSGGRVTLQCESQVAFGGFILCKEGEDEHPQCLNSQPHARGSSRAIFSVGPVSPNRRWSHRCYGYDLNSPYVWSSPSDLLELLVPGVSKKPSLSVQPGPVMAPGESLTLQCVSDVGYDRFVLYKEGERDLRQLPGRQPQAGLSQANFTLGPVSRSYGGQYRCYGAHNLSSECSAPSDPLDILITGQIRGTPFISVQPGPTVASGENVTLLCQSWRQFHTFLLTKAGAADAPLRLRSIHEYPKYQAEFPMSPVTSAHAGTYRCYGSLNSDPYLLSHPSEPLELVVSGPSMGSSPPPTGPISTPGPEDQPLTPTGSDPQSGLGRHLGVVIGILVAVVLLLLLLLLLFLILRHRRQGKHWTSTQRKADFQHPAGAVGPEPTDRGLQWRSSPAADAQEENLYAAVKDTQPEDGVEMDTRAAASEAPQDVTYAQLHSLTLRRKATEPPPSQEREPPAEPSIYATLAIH
UniProt O75022: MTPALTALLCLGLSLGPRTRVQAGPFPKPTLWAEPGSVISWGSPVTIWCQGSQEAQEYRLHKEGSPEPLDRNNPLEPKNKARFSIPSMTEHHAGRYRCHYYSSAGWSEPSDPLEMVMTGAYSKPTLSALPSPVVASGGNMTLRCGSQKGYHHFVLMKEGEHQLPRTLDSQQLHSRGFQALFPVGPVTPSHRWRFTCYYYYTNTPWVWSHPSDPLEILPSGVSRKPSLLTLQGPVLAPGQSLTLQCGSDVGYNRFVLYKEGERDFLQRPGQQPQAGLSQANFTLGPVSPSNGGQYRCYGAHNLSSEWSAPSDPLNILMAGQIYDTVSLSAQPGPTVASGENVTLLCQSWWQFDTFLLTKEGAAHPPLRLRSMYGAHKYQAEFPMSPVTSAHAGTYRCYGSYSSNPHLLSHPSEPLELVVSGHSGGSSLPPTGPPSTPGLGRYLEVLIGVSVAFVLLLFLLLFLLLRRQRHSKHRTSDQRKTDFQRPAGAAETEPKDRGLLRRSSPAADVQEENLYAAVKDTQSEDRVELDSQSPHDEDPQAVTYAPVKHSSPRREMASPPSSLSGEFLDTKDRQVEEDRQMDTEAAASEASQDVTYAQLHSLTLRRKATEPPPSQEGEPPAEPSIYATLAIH
UniProt Q8NHJ6: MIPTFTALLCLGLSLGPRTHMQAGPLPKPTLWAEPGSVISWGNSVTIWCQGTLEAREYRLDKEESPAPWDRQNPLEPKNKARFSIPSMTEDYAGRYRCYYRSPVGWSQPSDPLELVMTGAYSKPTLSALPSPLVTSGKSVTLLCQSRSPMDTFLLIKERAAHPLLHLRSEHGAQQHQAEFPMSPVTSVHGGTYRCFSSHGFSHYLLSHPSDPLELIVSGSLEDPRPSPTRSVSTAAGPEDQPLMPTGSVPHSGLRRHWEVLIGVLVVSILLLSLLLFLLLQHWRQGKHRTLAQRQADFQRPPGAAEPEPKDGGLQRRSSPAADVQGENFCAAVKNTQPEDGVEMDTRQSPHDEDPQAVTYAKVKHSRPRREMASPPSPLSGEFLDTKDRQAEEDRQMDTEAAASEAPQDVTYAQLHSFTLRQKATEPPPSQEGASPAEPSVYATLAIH
UniProt O75023: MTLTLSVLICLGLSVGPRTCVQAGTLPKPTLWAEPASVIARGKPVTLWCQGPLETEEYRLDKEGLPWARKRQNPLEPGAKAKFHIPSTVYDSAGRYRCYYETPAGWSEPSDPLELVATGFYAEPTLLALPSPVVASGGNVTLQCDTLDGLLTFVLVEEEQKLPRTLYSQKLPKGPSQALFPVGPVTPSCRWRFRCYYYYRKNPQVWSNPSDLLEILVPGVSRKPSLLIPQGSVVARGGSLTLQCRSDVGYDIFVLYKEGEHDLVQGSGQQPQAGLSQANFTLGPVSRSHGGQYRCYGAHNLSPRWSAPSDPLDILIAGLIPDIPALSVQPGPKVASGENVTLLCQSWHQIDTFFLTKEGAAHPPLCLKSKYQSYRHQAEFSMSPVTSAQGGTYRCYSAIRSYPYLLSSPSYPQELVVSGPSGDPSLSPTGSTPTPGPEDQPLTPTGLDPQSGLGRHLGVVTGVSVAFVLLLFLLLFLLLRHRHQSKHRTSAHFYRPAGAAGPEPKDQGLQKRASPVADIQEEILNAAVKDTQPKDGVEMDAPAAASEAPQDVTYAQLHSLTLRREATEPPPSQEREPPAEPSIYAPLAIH
UniProt P67775: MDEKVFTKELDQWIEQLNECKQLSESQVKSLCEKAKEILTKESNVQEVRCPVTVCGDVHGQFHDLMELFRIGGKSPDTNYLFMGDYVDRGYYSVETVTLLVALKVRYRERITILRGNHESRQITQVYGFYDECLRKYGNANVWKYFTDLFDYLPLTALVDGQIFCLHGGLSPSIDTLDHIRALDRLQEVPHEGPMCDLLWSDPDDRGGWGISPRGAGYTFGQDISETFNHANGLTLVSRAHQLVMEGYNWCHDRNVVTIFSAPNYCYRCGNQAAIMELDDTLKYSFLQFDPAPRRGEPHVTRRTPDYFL
UniProt P61586: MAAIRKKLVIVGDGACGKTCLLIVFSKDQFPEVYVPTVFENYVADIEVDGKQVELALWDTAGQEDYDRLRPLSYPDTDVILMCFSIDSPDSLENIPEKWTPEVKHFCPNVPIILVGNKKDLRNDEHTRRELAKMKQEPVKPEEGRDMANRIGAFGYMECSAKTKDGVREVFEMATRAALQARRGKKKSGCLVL

Columns and labels:
[1] = molecular target: Ece1-II peptide, Gal4 activation domain fusion (Candida albicans) (UniProt Q07730); experiment: two-hybrid; HT-eY2H screen: Ece1 peptides as Gal4 activation domain fusions (AD-Y, called bait, yeast Y8930), human ORFeome clones (n = 13,761) as DB-X fusions (called prey, yeast Y8800); mated and spotted on SC-Leu-Trp, SC-Leu-Trp-His and SC-Leu-His+CHX; positive = activation of GAL1::HIS3 in a CHX-sensitive manner; clones confirmed by Sanger sequencing
[2] = molecular target: Ece1-IV peptide, Gal4 activation domain fusion (Candida albicans) (UniProt Q07730); experiment: as above
[3] = molecular target: Ece1-V peptide, Gal4 activation domain fusion (Candida albicans) (UniProt Q07730); experiment: as above
[4] = molecular target: Ece1-VI peptide, Gal4 activation domain fusion (Candida albicans) (UniProt Q07730); experiment: as above
[5] = molecular target: Ece1-VII peptide, Gal4 activation domain fusion (Candida albicans) (UniProt Q07730); experiment: as above
[6] = molecular target: Ece1-VIII peptide, Gal4 activation domain fusion (Candida albicans) (UniProt Q07730); experiment: as above
[7] = molecular target: Recombinant Cyclin H (CCNH) protein with a C-HIS tag (human) (UniProt P51946); experiment: SPR; Biacore 8K, PBST running buffer, other conditions as for candidalysin (CCNH amine-coupled on a CM5 chip, 25 °C, 30 μL/min); Ece1-II, Ece1-IV, Ece1-V or human cathelicidin as analyte; both purified

| Substance | binding [1] | binding [3] | also measured |
| --- | --- | --- | --- |
| ACD, DB fusion (human ORFeome clone) (from UniProt Q96AP0 1-458) | binds | binds | binding [2]: binds; binding [4]: no binding; binding [5]: binds; binding [6]: no binding |
| Ece1-II, synthetic peptide (from UniProt Q07730 32-61) |  |  | binding [7]: binds |
| Ece1-IV, synthetic peptide (from UniProt Q07730 94-126) |  |  | binding [7]: binds |
| Ece1-V, synthetic peptide (from UniProt Q07730 127-160) |  |  | binding [7]: binds |
| LILRA1, DB fusion (human ORFeome clone) (from UniProt O75019 1-489) | binds | binds |  |
| LILRA2, DB fusion (human ORFeome clone) (from UniProt Q8N149 1-483) | binds | binds |  |
| LILRA3, DB fusion (human ORFeome clone) (from UniProt Q8N6C8 1-439) | binds | binds |  |
| LILRB1, DB fusion (human ORFeome clone) (from UniProt Q8NHL6 1-650) | binds | binds |  |
| LILRB2, DB fusion (human ORFeome clone) (from UniProt Q8N423 1-597) | binds | binds |  |
| LILRB3, DB fusion (human ORFeome clone) (from UniProt O75022 1-631) | binds | binds |  |
| LILRB4, DB fusion (human ORFeome clone) (from UniProt Q8NHJ6 1-448) | binds | binds |  |
| LILRB5, DB fusion (human ORFeome clone) (from UniProt O75023 1-590) | binds | binds |  |
| PPP2CA, DB fusion (human ORFeome clone) (from UniProt P67775 1-309) | binds | binds | binding [2]: binds |
| RHOA, DB fusion (human ORFeome clone) (from UniProt P61586 1-193) | binds |  | binding [4]: binds; binding [6]: binds |
